# Data source: PubChem BioAssay AID504804 (Drosophila RNAi Screening Center, 2011)
# Assay: 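Knock-downs shielding fly cells from apoptosis caused by DNA damage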 (primary screen)
# Cells: Drosophila Kc cells
# Reagent: long dsRNA against Drosophila genes, 0.5 µg dsRNA per well
# Time to read-out: 96 h (48 h knock-down, then 48 h drug)
# Treatment: doxorubicin 5 µg/ml for 48 h, added 48 h after dsRNA
# Read-out: 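Luminescent ATP counts per replicate, not normalised, reflecting viable cells after 48 h dsRNA knock-down followed by 48 h of 5 µg/ml doxorubicin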
# Reading the numbers: raw ATP luminescence: higher = more viable cells, protection from doxorubicin
# Rule for the call: 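Active when both duplicate wells lie at least 2 SD above the plate mean and protection is confirmed by rescreening and independent dsRNAs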
# The deposit covers about 19,000 reagents; shown is a random part of those with a known target gene and a result. In the full data, 47 (0.25%) were called active. 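Signals are raw, not normalised; exact z-scores behind calls not deposited; actives needed confirmation, so some wells reaching 2 SD are inactive.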 Entries without a mark were called inactive. The numbers tell different reagents against one gene apart.
gene,dsRNA no.,SD above plate mean,"raw ATP luminescence, replicate 1","raw ATP luminescence, replicate 2"
cue (GeneID 38174),1,,77460,67253
CG1227 (GeneID 40872),1,,47760,24007
Tep1 (GeneID 34937),1,,50097,63060
alphaTub84D (GeneID 40904),1,,57003,61267
CG43693 (GeneID 39231),1,,1.33e5,1.34e5
CG43693 (GeneID 39231),2,,55353,51553
CG13836 (retired record) (GeneID 42741),1,,66150,64430
CG14439 (GeneID 31614),1,,43720,42530
Rab30 (GeneID 33988),1,,32600,37937
CG12521 (GeneID 50289),1,,95827,67623
LKRSDH (GeneID 34064),1,,1.11e5,61260
TBC1D5 (GeneID 41628),1,,34010,23270
ppk17 (GeneID 35006),1,,48730,54077
CG5149 (GeneID 34013),1,,98393,71367
Cyp311a1 (GeneID 32170),1,,3.81e5,3.69e5
Rat1 (GeneID 33964),1,,1.13e5,69693
glob2 (GeneID 40807),1,,58347,55660
Not3 (GeneID 35501),1,,1.02e5,75087
Ir41a (GeneID 2768714),1,,85407,88123
Ir41a (GeneID 2768714),2,,43280,48527
Dhc16F (GeneID 32785),1,,3.67e5,3.14e5
gas (GeneID 37572),1,,57333,61517
Rtnl1 (GeneID 33721),1,,2.83e5,2.91e5
Rtnl1 (GeneID 33721),2,,94357,67000
Rtnl1 (GeneID 33721),3,,1.05e5,69380
SPR (GeneID 31463),1,,2.67e5,2.60e5
SPR (GeneID 31463),2,,37500,42890
SPR (GeneID 31463),3,,32990,50990

12 entries from above, ordered by “raw ATP luminescence, replicate 1”, lowest first.
gene,dsRNA no.,SD above plate mean,"raw ATP luminescence, replicate 1","raw ATP luminescence, replicate 2"
SPR (GeneID 31463),2,,37500,42890
Ir41a (GeneID 2768714),2,,43280,48527
gas (GeneID 37572),1,,57333,61517
glob2 (GeneID 40807),1,,58347,55660
Ir41a (GeneID 2768714),1,,85407,88123
Rtnl1 (GeneID 33721),2,,94357,67000
Not3 (GeneID 35501),1,,1.02e5,75087
Rtnl1 (GeneID 33721),3,,1.05e5,69380
Rat1 (GeneID 33964),1,,1.13e5,69693
SPR (GeneID 31463),1,,2.67e5,2.60e5
Rtnl1 (GeneID 33721),1,,2.83e5,2.91e5
Dhc16F (GeneID 32785),1,,3.67e5,3.14e5

Additional results follow.
gene,dsRNA no.,SD above plate mean,"raw ATP luminescence, replicate 1","raw ATP luminescence, replicate 2"
lbl (GeneID 42541),1,,37860,46590
CG3663 (GeneID 37944),1,,50873,52857
CG8097 (GeneID 32495),1,,3.93e5,3.16e5
CG10376 (GeneID 35126),1,,99493,65060
Naxd (GeneID 40085),1,,18377,24420
prd (GeneID 34629),1,,1.04e5,79910
klar (GeneID 38067),1,,71653,72320
CG3092 (GeneID 37682),1,,60373,55997
fax (GeneID 39826),1,,21297,20057
CG7720 (GeneID 42257),1,,48267,61650
CG7720 (GeneID 42257),2,,1.94e5,1.94e5
Ufc1 (GeneID 36762),1,,52290,52480
cnn (GeneID 36491),1,,81523,1.03e5
CG32110 (GeneID 317858),1,,77777,82247
CG9581 (GeneID 33017),1,,1.96e5,1.92e5
Idh (GeneID 44291),1,,44887,33430
CG17195 (GeneID 43113),1,,59320,69170
EndoA (GeneID 42265),1,,52740,50603
Adgf-A2 (GeneID 64879),1,,88487,80773
Cftr (GeneID 42928),1,,42670,40943
CG9101 (GeneID 32452),1,,1.86e5,2.13e5
CG31792 (GeneID 35163),1,,54477,63303
wuho (GeneID 31566),1,,38380,46260
polybromo (GeneID 42954),1,,35480,34497
CG31419 (GeneID 326137),1,,77720,72700
CG17118 (GeneID 34478),1,,37140,60460
Or33a (GeneID 34601),1,,50973,71423
CG18507 (GeneID 34775),1,,2.88e5,3.18e5
CG18507 (GeneID 34775),2,,74300,1.06e5
CG30428 (GeneID 246608),1,,95057,93347
Fas1 (GeneID 42025),1,,72530,49120
msb1l (GeneID 35254),1,,90940,71423
CG6000 (GeneID 42851),1,,65810,76350
OtopLb (GeneID 33539),1,,97403,68950
Gem2 (GeneID 40087),1,,28297,22440
CG15252 (GeneID 31931),1,,2.93e5,3.10e5
Obp99a (GeneID 43488),1,,40940,37780
path (GeneID 39106),1,,1.04e5,98897
zetaCOP (GeneID 39862),1,at least 2 SD above plate mean (active),99567,90950
CG7879 (GeneID 38184),1,,52263,54783
JMJD4 (GeneID 35089),1,,96580,93827
mrn (GeneID 39688),1,,28247,28270
Sld5 (GeneID 43166),1,,45990,39410
COX4 (GeneID 35279),1,,81080,62273
MED31 (GeneID 40577),1,,20463,19903
CG32182 (GeneID 317898),1,,80177,77010
CG2608 (GeneID 35323),1,,79030,55263
CG32726 (GeneID 318175),1,,1.86e5,1.82e5
Gr68a (GeneID 39324),1,,92000,69073
CG34289 (GeneID 5740640),1,,2.20e5,2.60e5
CG8620 (GeneID 50310),1,,60963,77080
P5CDh1 (GeneID 40434),1,,23083,23707
Cisd2 (GeneID 43459),1,,35260,32570
Nplp1 (GeneID 38003),1,,64310,55123
FLASH (GeneID 36455),1,,2.22e5,2.11e5
jigr1 (GeneID 43093),1,,2.39e5,2.15e5
jigr1 (GeneID 43093),2,,67130,53810
